Reference: paper PMC3107197
Positions count from the first letter of the chain named. No constants are given. Whether binding was seen depends on the method and setting. For some assays here: Binding seen in cells or lysates may run through a third protein. Some entries that bind do so weakly or less than the wild type. Where a sequence is shown, tags or fusion partners need not be part of it.

Chains of the proteins cited; added tags and fusions are not shown.
UniProt P34756: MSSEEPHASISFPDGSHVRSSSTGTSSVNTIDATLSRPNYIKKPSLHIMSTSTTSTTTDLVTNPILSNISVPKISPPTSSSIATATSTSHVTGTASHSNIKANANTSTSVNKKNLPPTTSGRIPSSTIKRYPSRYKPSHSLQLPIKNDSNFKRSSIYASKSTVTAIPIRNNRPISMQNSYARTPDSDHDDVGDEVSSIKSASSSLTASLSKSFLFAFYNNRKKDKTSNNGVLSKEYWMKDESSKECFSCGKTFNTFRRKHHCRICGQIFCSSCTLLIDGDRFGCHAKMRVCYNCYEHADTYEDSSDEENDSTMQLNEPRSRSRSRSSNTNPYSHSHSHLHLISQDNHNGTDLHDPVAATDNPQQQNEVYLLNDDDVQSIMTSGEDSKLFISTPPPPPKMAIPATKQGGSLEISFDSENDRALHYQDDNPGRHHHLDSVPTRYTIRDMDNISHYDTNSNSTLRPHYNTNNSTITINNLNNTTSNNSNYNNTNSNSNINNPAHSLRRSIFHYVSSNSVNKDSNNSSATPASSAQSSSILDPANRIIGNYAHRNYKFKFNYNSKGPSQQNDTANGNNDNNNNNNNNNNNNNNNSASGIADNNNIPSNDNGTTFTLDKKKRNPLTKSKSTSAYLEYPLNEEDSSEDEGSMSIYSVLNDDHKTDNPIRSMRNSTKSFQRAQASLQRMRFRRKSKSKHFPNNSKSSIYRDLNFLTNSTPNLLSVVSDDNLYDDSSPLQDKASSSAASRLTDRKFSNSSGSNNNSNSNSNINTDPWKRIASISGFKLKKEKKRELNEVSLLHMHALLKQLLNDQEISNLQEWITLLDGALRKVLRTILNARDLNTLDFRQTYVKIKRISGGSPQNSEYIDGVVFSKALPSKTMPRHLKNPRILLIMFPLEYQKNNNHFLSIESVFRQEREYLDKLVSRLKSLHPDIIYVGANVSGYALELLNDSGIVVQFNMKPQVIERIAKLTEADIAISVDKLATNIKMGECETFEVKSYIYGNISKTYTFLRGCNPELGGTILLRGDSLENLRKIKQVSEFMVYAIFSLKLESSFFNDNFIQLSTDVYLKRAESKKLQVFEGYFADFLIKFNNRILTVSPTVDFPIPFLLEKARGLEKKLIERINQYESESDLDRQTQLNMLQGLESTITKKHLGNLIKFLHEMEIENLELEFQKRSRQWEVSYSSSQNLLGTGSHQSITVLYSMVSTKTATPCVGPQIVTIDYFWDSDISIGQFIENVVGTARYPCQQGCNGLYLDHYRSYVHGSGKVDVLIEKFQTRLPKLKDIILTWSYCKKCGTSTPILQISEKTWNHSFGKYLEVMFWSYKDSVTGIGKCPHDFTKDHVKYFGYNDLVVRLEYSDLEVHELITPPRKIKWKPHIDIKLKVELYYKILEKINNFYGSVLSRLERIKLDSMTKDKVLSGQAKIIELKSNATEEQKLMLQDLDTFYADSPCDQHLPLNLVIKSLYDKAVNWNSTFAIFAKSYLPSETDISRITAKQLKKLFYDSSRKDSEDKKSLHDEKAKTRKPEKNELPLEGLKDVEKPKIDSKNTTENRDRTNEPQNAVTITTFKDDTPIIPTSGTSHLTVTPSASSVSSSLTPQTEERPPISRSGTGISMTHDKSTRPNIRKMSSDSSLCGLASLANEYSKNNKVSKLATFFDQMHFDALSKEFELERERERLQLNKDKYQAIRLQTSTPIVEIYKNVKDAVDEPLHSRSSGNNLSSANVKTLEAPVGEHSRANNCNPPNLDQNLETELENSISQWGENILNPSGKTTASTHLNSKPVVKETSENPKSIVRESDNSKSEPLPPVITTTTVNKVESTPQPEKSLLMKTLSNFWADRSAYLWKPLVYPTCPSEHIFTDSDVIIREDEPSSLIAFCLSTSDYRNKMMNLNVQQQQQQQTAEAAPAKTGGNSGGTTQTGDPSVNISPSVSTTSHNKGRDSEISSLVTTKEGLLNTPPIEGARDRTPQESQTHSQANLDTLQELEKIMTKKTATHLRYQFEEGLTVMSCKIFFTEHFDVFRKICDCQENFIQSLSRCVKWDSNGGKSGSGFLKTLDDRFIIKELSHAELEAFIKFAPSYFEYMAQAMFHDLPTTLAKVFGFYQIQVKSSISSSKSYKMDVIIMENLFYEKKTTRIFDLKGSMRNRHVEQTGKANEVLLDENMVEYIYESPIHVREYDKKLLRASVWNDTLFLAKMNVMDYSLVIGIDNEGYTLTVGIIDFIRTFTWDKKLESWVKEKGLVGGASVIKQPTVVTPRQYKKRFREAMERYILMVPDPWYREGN

T1: myc-tagged Fig4p (wildtype, yeast) (yeast) (UniProt P42837)
T1 sequence: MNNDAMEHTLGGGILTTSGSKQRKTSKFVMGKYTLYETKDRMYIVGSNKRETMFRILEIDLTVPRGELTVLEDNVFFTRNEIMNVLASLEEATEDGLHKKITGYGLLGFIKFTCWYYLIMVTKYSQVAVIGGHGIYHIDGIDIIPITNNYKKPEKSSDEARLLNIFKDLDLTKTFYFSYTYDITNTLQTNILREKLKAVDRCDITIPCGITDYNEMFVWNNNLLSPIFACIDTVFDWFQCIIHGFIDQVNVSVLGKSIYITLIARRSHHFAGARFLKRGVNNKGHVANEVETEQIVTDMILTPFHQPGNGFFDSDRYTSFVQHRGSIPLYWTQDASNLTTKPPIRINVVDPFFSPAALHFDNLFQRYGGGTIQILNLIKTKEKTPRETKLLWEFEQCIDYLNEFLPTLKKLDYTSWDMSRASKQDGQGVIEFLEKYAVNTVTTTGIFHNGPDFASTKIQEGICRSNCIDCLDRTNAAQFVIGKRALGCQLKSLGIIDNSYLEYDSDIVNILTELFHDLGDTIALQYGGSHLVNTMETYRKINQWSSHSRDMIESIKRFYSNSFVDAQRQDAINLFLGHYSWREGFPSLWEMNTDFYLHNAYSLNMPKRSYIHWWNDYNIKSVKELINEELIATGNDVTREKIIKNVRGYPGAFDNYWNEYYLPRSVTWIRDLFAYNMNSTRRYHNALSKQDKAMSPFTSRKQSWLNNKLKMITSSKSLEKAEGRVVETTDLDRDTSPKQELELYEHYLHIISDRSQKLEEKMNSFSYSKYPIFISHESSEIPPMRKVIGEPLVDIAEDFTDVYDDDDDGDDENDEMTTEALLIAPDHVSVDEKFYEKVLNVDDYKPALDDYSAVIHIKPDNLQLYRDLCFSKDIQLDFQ

T2: myc-tagged Fig4p-I59T (yeast) (yeast) (UniProt P42837)
T2 sequence: T1 sequence with I59T

T3: yeast Fig4p (wildtype) fused to the DNA binding domain of GAL4 (yeast) (UniProt P42837)
T3 sequence: T1 sequence

T4: yeast Fig4p-I59T fused to the DNA binding domain of GAL4 (yeast) (UniProt P42837)
T4 sequence: T1 sequence with I59T

B1: yeast Vac14p fused to the transcription activation domain (protein, UniProt Q06708 1-880)
chain: MEKSIAKGLSDKLYEKRKAAALELEKLVKQCVLEGDYDRIDKIIDELCRDYAYALHQPMARNAGLMGLAATAIALGINDVGRYLRNILPPVLACFGDQNDQVRFYACESLYNIAKIAKGEILVYFNEIFDVLCKISADTENSVRGAAELLDRLIKDIVAERASNYISIVNNGSHGLLPAIKTDPISGDVYQEEYEQDNQLAFSLPKFIPLLTERIYAINPDTRVFLVDWLKVLLNTPGLELISYLPSFLGGLFTFLGDSHKDVRTVTHTLMDSLLHEVDRISKLQTEIKMKRLERLKMLEDKYNNSSTPTKKADGALIAEKKKTLMTALGGLSKPLSMETDDTKLSNTNETDDERHLTSQEQLLDSEATSQEPLRDGEEYIPGQDINLNFPEVITVLVNNLASSEAEIQLIALHWIQVILSISPNVFIPFLSKILSVLLKLLSDSDPHITEIAQLVNGQLLSLCSSYVGKETDGKIAYGPIVNSLTLQFFDSRIDAKIACLDWLILIYHKAPNQILKHNDSMFLTLLKSLSNRDSVLIEKALSLLQSLCSDSNDNYLRQFLQDLLTLFKRDTKLVKTRANFIMRQISSRLSPERVYKVISSILDNYNDTTFVKMMIQILSTNLITSPEMSSLRNKLRTCEDGMFFNSLFKSWCPNPVSVISLCFVAENYELAYTVLQTYANYELKLNDLVQLDILIQLFESPVFTRMRLQLLEQQKHPFLHKCLFGILMIIPQSKAFETLNRRLNSLNIWTSQSYVMNNYIRQRENSNFCDSNSDISQRSVSQSKLHFQELINHFKAVSEEDEYSSDMIRLDHGANNKSLLLGSFLDGIDEDKQEIVTPISPMNEAINEEMESPNDNSSVILKDSGSLPFNRNVSDKLKK
B2: GFP (Venus)-tagged Vac14p (yeast) (protein, UniProt Q06708 1-880)
chain: B1 chain

Key:
[1] = biological target: T1, myc-tagged Fig4p (wildtype, yeast) (yeast); experiment: co-IP; myc-tagged Fig4p with GFP (Venus)-tagged Vac14p or GFP-tagged Fab1p, from yeast lysates; densitometry of non-saturated images, mutant ratio normalized to wildtype
[2] = biological target: T2, myc-tagged Fig4p-I59T (yeast) (yeast); experiment: as above
[3] = biological target: T3, yeast Fig4p (wildtype) fused to the DNA binding domain of GAL4 (yeast); experiment: two-hybrid; directed yeast two-hybrid; FIG4 in pGBD (GAL4 DNA binding domain), VAC14 in pGAD (activation domain); strain PJ69-4A; SC-LEU-TRP-ADE-HIS with (more stringent) or without (less stringent) 3AT; 24°C, 4 to 14 days
[4] = biological target: T4, yeast Fig4p-I59T fused to the DNA binding domain of GAL4 (yeast); experiment: as above

Row | Molecule | binding [1] | binding [2] | binding [3] | binding [4]
1 | GFP-tagged Fab1p (yeast) (from UniProt P34756 1-2278) | binds | binds | – | –
2 | B1 | – | – | binds | binds
3 | B2 | binds | – | – | –
